# Data published in patent publication US10125112B2.
# Protein sequences, listed by entry. Tags and fused reporters are not part of them.
# UniProt Q9HBX9, whole entry: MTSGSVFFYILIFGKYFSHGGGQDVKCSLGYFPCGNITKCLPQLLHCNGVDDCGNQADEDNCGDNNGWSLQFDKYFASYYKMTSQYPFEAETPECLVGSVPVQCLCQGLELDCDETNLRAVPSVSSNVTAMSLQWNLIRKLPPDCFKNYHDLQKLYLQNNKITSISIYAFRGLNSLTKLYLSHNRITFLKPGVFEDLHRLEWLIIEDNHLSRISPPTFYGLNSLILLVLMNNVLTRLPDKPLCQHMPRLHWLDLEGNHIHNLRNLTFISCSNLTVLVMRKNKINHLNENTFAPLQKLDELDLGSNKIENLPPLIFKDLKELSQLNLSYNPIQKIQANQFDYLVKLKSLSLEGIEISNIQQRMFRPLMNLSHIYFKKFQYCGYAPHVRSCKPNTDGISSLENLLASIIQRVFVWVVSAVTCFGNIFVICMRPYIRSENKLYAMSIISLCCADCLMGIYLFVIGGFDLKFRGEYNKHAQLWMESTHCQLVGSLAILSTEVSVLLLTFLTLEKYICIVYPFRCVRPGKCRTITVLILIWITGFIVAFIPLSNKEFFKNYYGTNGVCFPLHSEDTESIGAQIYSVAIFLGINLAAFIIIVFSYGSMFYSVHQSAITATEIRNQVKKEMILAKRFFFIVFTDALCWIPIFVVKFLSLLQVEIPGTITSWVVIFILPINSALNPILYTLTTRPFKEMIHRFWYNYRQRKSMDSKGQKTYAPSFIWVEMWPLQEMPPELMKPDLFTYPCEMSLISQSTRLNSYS
# Structures were worked out from names or drawings and are uncertain.
# Target: RXFP1 (Homo sapiens, UniProt Q9HBX9)
# Experiment: RXFP1 cAMP assay in HEK293-RXFP1 cells (HTRF)
# Type: cell-based
# Settings: percentage of the maximal receptor activation induced by high concentrations of forskolin; Tables 1-7
row,SMILES,Max Response [%]
1,CCOc1ccccc1C(=O)Nc1ccccc1C(=O)Nc1cccc(C(C)(C)C)c1,93
2,CCOc1ccccc1C(=O)Nc1ccccc1C(=O)Nc1cccnc1,37
